From PubChem BioAssay AID651640 (Broad Institute, 2012)
The whole screen tested about 350,000 compounds, of which about 6,000 (1.7%) were called active. Inconclusive results, whose numbers are uncertain, are shown with a selection of clear calls. No stated cut-off is given here; in the data, active means CPE inhibition above about 20% (passing the limit was not always enough); inconclusive means no clear call, values can overlap the other calls; tested in BHK-21 cells. Some structures have more than one record in an assay (separate samples or runs), and their calls can disagree.

Experiment: protection of cells from dengue 2 killing – plate reader, single concentration, primary screen (AID 651640);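 further: 0% = median of neutral control wells and 100% = median of positive control wells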
Conditions: DENV2-infected cells, cytopathic effect rescue, at 9.99 µM, active compounds read high

Structure (SMILES)	CPE inhibition
COc1ccccc1/C=N/NC(=O)CSc1cc(C)nc2ccccc12	inconclusive: 28.7%
COC(=O)[C@]1(Cc2ccccc2)N[C@H](CN(C)C(=O)NC(C)C)[C@@H]2C(=O)N(C)C(=O)[C@@H]21	inconclusive: 36.7%
C[C@@H]1CN([C@H](C)CO)C(=O)c2cc(NC(=O)CCCN(C)C)ccc2O[C@H]1CN(C)S(C)(=O)=O	inactive: 1.79%
O=C(O)C(CCCCNS(=O)(=O)c1ccc(F)cc1)NS(=O)(=O)c1ccc(F)cc1 (stereo not drawn)	inconclusive: 33.3%
O=C(NCc1ccncc1)C12CC3CC(CC(Cl)(C3)C1)C2	inconclusive: 22.9%
CN1C(=O)c2cc(NC(=O)C3CC3)ccc2OC[C@H]2O[C@H](CC(=O)NCc3ccccc3F)CC[C@H]21	inconclusive: 25.2%
COc1ccccc1/C=N/NC(=O)c1ccccc1Cl	inactive: 4.63%
O=C([C@@H]1[C@@H](CO)[C@@H]2Cn3c(ccc(-c4ccncc4)c3=O)[C@@H]2N1Cc1cocn1)N1CCCCC1	inactive: 4%
CCCNC(=O)C1(C)CCN(C(=O)c2c(F)ccc(C)c2F)C1 (stereo not drawn)	inconclusive: 42.9%
CC(C)Oc1ccc(C(=O)OCC(=O)NCCNC(=O)COC(=O)c2ccc(OC(C)C)cc2)cc1	inconclusive: 30.6%
CCOc1ccc(S(=O)(=O)N2CCN(C(=O)c3oc4ccccc4c3C)CC2)cc1	inconclusive: 22.6%
C[C@@H]1CN([C@H](C)CO)C(=O)c2cc(N(C)C)ccc2O[C@@H](C)CCCCO[C@H]1CN(C)C(=O)C1CCCCC1	inconclusive: 107%
CCCN(C)C[C@H]1Oc2cc(-c3cccnc3)ccc2S(=O)(=O)N([C@@H](C)CO)C[C@H]1C	inactive: -8.75%
CCCN(C)C[C@@H]1Oc2ncc(-c3cccc(C(F)(F)F)c3)cc2C(=O)N([C@H](C)CO)C[C@@H]1C	inconclusive: 21.4%
C[C@@H]1CCCCO[C@@H](CN(C)CC2CCCCC2)[C@@H](C)CN([C@H](C)CO)C(=O)c2cc(N(C)C)ccc2O1	active: 48.3%
CC1CCCC(NC(=O)COC(=O)c2cccc(S(=O)(=O)N3CCCCC3)c2)C1C (stereo not drawn)	inconclusive: 25.1%
O=C(C[C@@H]1CC[C@@H](NC(=O)C2CCC2)[C@@H](CO)O1)Nc1nccs1	inactive: 15.2%
Cc1ccc(OCc2nnc(SCc3cc(=O)[nH]c4ccccc34)n2-c2ccccc2)cc1	active: 60.3%
C[C@@H]1CCCCO[C@H](CN(C)S(=O)(=O)c2cccs2)[C@@H](C)CN([C@@H](C)CO)C(=O)c2cc(NC(=O)Cc3ccccc3)ccc2O1	inconclusive: 27.7%
CCC(=O)N1[C@H](CO)[C@H](c2ccccc2)[C@H]1CN(C)C(=O)c1ccccc1F	inactive: -12.8%
CNC[C@@H]1Oc2cc(C#Cc3ccccn3)ccc2S(=O)(=O)N([C@H](C)CO)C[C@H]1C	inconclusive: 26.7%
COc1ccc(CN2CCC(C(=O)NC(c3ccc4c(c3)OCO4)c3ccccn3)CC2)cc1 (stereo not drawn)	active: 100%
C/C=C/c1cnc2c(c1)C(=O)N([C@H](C)CO)C[C@@H](C)[C@H](CN(C)C(=O)NCCC)O2	inactive: 15.5%
O=C(C1CCCC1)N1CCCCN2[C@H](C1)[C@H](c1ccc(-c3cccc(F)c3)cc1)[C@@H]2CO	inconclusive: 21.3%
CC(=O)OCC(=O)C1(O)CCC2C3CC(F)C4=CC(=O)CCC4(C)C3C(=O)CC21C (stereo not drawn)	inconclusive: 23.4%

Structure (SMILES)	CPE inhibition
C/C(=N\NC(=O)CSc1nc2ccccc2[nH]1)c1ccncc1	inactive: -4.07%
COc1ccccc1C#Cc1ccc2c(c1)O[C@@H](CN(C)C(C)=O)[C@H](C)CN([C@H](C)CO)S2(=O)=O	inactive: 4.98%
CCS(=O)(=O)N[C@@H]1C=C[C@H](CC(=O)Nc2ccc(-c3ccccc3)cc2)O[C@@H]1CO	active: 70.3%
CC(C)CN1C(=O)CSCC1(C)C(=O)NCc1ccccc1 (stereo not drawn)	inconclusive: 74.2%
O=S(=O)(c1cccs1)N1CCN(c2ccc(F)cc2)CC1	inconclusive: 22.6%
Cn1c(N)c(C(=O)CSc2nc3ccccc3c(=O)n2CCCN2CCOCC2)c(=O)n(C)c1=O	inconclusive: 28.5%
COc1ccc(S(=O)(=O)c2c(O)c3ccc(C(=O)Nc4cccc(F)c4)cc3[nH]c2=O)cc1	inconclusive: 52.4%
O=C(Nc1ccccc1F)N1CC(=O)N2[C@H](CO)[C@H](c3ccc(C#Cc4ccc(F)cc4)cc3)[C@@H]2C1	active: 27.4%
Cn1cc(Br)c(C(=O)NC(=S)N2CCN(c3ccccn3)CC2)n1	inconclusive: 42.8%
CN(C)C(=O)c1ccc(NC(=O)COC(=O)CCN=C2NS(=O)(=O)c3ccccc32)cc1	inconclusive: 22.4%
CCN1CCN(C(=O)/C=C/c2ccc(C(C)C)cc2)CC1	inactive: 19.1%
Cc1noc(C)c1NC(=O)N(C)C[C@@H]1Oc2ccc(NC(=O)NC3CCCCC3)cc2C(=O)N([C@@H](C)CO)C[C@@H]1C	active: 34.3%
Cc1noc(C)c1NC(=O)Nc1ccc2c(c1)C(=O)N([C@@H](C)CO)C[C@@H](C)[C@@H](CN(C)Cc1ccc(C(=O)O)cc1)O2	inconclusive: 26%
O=C1/C(=C\c2cccc(O)c2O)SC(=S)N1Cc1ccccc1	inconclusive: 42.3%
C[C@@H]1CN([C@H](C)CO)C(=O)c2cccc(NS(=O)(=O)c3ccc(Cl)cc3)c2O[C@H]1CN(C)C(=O)Nc1ccc2c(c1)OCO2	inactive: -15%
NCCCNCCCCNCCCN	inconclusive: 25.2%
Cc1[nH]c2ccccc2c1/C=N/NC(=O)c1cc(-c2ccccc2)n[nH]1	inconclusive: 20.8%
CCCN(C(=O)c1cccc(S(=O)(=O)N2CCN(C)CC2)c1)c1c(N)n(Cc2ccccc2)c(=O)[nH]c1=O	inconclusive: 34%
CC(=O)Nc1ccc(Nc2ccccc2)cc1	inconclusive: 31.8%
COc1cccc(C#Cc2ccc3c(c2)O[C@H](CN(C)C)[C@@H](C)CN([C@@H](C)CO)S3(=O)=O)c1	inconclusive: 57.7%
COc1ccc(C2=NOC(C(=O)Nc3c(C)n(C)n(-c4ccccc4)c3=O)C2)cc1 (stereo not drawn)	inactive: -8.28%
COc1ccccc1CN1C[C@@H]2N[C@H](C1)C2c1ccc(/C=C/c2ccccc2)cc1 (stereo partly drawn)	inactive: 0.36%
CN(C)CC(=O)N[C@@H]1CC[C@@H](CCNC(=O)C2CCC2)O[C@H]1CO	inconclusive: 28.6%
CCN1CCN(C(=O)/C=C/c2ccc(OC)c(OC)c2)CC1	active: 20.1%
COc1ccc(C(C)=O)cc1COC(=O)c1ccc(N)c([N+](=O)[O-])c1	inactive: -5.18%

Single entries from above:
Entry for CN(C)C(=O)c1ccc(NC(=O)COC(=O)CCN=C2NS(=O)(=O)c3ccccc32)cc1 under CPE inhibition: inconclusive: 22.4%
Entry for COc1cccc(C#Cc2ccc3c(c2)O[C@H](CN(C)C)[C@@H](C)CN([C@@H](C)CO)S3(=O)=O)c1 under CPE inhibition: inconclusive: 57.7%
Entry for NCCCNCCCCNCCCN under CPE inhibition: inconclusive: 25.2%

Additional entries follow.

Structure (SMILES)	CPE inhibition
CCC(=O)Nc1ccc2c(c1)OC[C@H](C)N(C(=O)c1ccncc1)C[C@H](C)[C@H](OC)CN(C)C2=O	inactive: -6.05%
Oc1cccc(Nc2ccccc2)c1	active: 28.5%
Cc1nnc2n1N=C(c1ccc(F)cc1F)CS2	inconclusive: 66.1%
O=C(Nc1nc(-c2ccco2)c(-c2ccco2)s1)c1ccc(F)cc1F	active: 68.2%
C[C@@H]1CCCCO[C@@H](CN(C)Cc2ccc(C(=O)O)cc2)[C@H](C)CN([C@H](C)CO)C(=O)c2cc(NS(=O)(=O)c3cn(C)cn3)ccc2O1	inactive: 5.73%
COCc1ccc(C(=O)NC(C)c2cnn(-c3ccccc3C)c2C)o1 (stereo not drawn)	inactive: -0.041%
CN1C(=S)SC(/[N+]([O-])=C/c2c(F)cccc2Cl)C1(C)C (stereo not drawn)	inconclusive: 33.9%
O=C(CN1CCN(Cc2ccccc2F)C1=O)NC1CCCC1	inactive: 12.5%
Cc1ccc2c(c1)c1c3n2CCNC3CCC1 (stereo not drawn)	inconclusive: 66.7%
OCCNCCO	inconclusive: 47.1%
O=C1C=C(c2ccc(F)c(Cl)c2)C[C@@H](c2ccc(F)cc2)C1	active: 23.3%
COc1ccc(S(=O)(=O)Nc2cccc3c2O[C@H](CN(C)C(=O)NC(C)C)[C@@H](C)CN([C@H](C)CO)C3=O)cc1	inconclusive: 24%
CN(C)C(=O)[C@@H]1[C@@H](CO)[C@@H]2Cn3c(ccc(C4=CCCC4)c3=O)[C@H]1N2S(=O)(=O)c1cn(C)cn1	active: 22.3%
O=C(NCc1cccc(F)c1)[C@@H]1[C@@H](CO)[C@@H]2Cn3c(cccc3=O)[C@H]1N2C(=O)c1cnccn1	active: 81.8%
CCCC#Cc1ccc([C@H]2[C@H](CO)N3C(=O)CN(C(=O)Nc4cccc(F)c4)C[C@@H]23)cc1	inactive: -3.78%
C[C@H](CO)N1C[C@H](C)[C@@H](CN(C)C(=O)Nc2ccccc2)Oc2c(NS(=O)(=O)c3ccccc3)cccc2C1=O	active: 25.5%
Cc1ccc(C(=O)Sc2cccccc2=O)cc1	inconclusive: 20.6%
CC(NC(=O)NC1CCCCC1)C(c1cccs1)N1CCN(c2ccccc2)CC1 (stereo not drawn)	inconclusive: 49.5%
Cc1ccnc2c(N3C(=O)C4C5C=CC(C5)C4(C)C3=O)cccc12 (stereo not drawn)	inconclusive: 27.9%
Cc1ccc(S(=O)(=O)N(C)C[C@H]2OCCCC[C@@H](C)Oc3ccc(NS(=O)(=O)c4c(C)noc4C)cc3C(=O)N([C@H](C)CO)C[C@H]2C)cc1	active: 20.6%
COCC(=O)NC[C@@H]1N[C@@H](CO)[C@H]1c1ccc(C2=CCCCC2)cc1	inactive: 2.96%
C[C@@H]1CN([C@@H](C)CO)C(=O)Cc2cc(NC(=O)c3ccncc3)ccc2O[C@H]1CN(C)S(=O)(=O)c1cccs1	active: 23.9%
C[C@H](CO)N1C[C@H](C)[C@@H](CN(C)C(=O)Nc2ccc(C(F)(F)F)cc2)Oc2ccc(NC(=O)Cn3cnnn3)cc2C1=O	inconclusive: 21%

Part of the list above in another layout.
Structure (SMILES),CPE inhibition
Cc1ccc(S(=O)(=O)N(C)C[C@H]2OCCCC[C@@H](C)Oc3ccc(NS(=O)(=O)c4c(C)noc4C)cc3C(=O)N([C@H](C)CO)C[C@H]2C)cc1,active: 20.6%
COCC(=O)NC[C@@H]1N[C@@H](CO)[C@H]1c1ccc(C2=CCCCC2)cc1,inactive: 2.96%
